The list shows a part of the results.

Amino acid sequences for entries named in this document (tags omitted). A change or cut given only in a name is not applied to a line headed by its entry.
UniProt Q92966: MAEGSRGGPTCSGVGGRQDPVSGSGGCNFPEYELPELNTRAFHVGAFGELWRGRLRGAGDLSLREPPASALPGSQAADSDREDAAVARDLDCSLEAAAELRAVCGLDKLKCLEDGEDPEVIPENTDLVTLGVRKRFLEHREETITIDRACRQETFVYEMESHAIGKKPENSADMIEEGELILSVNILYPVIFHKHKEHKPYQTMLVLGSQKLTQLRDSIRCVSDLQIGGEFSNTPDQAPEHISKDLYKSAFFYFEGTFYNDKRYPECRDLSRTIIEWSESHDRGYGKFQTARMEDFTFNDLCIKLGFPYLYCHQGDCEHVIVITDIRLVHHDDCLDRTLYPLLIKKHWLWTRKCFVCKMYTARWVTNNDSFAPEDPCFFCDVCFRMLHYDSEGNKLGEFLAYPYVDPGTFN
UniProt Q16560: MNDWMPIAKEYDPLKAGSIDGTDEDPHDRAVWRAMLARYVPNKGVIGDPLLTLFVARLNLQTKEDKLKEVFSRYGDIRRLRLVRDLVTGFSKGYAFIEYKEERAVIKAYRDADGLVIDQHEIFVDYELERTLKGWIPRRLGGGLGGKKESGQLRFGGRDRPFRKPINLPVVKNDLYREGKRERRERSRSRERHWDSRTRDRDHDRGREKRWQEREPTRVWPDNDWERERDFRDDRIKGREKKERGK
UniProt Q9Y5W8: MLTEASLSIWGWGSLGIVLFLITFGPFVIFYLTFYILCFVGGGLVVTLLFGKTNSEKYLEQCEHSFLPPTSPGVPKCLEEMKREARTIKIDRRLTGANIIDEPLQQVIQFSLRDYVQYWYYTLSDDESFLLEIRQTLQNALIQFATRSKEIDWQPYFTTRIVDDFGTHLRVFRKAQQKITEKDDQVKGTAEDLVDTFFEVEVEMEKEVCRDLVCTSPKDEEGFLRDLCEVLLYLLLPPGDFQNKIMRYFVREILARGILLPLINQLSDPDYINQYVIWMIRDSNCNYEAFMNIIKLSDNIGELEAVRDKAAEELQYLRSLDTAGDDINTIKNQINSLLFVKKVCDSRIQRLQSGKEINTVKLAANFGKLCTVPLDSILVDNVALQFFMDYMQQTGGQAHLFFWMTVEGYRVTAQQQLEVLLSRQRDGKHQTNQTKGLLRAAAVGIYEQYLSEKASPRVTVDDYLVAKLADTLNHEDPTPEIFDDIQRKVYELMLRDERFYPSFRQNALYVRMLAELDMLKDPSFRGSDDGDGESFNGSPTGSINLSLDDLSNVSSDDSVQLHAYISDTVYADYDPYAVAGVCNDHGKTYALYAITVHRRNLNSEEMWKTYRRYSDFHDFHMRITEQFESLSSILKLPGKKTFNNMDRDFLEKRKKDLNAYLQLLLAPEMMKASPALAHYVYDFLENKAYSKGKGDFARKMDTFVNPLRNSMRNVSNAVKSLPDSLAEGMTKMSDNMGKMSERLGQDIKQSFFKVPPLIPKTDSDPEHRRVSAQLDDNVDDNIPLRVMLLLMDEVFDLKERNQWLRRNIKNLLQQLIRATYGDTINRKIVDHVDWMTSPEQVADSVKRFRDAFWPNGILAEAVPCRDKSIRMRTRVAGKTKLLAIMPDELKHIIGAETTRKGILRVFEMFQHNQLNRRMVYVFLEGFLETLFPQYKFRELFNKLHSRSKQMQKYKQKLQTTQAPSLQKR
UniProt Q9H7B4: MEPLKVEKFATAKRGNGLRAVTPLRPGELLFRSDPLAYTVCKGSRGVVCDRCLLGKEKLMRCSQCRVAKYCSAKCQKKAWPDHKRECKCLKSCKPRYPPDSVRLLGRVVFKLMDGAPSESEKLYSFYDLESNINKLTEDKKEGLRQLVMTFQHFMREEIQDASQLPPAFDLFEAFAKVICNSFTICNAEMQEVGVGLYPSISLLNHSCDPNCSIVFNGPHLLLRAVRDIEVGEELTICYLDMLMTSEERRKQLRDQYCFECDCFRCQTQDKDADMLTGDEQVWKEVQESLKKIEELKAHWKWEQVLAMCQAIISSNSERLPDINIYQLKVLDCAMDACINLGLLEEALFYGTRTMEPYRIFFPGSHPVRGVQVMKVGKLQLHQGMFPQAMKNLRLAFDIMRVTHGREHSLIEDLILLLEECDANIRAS
UniProt Q9BV90: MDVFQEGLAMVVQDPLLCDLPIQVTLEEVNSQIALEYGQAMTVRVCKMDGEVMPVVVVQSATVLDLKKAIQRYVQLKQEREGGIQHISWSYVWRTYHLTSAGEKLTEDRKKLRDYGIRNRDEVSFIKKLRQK
UniProt Q96E16: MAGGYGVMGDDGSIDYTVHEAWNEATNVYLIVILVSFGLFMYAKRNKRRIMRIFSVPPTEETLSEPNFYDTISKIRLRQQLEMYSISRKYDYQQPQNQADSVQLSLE
UniProt Q8WV41: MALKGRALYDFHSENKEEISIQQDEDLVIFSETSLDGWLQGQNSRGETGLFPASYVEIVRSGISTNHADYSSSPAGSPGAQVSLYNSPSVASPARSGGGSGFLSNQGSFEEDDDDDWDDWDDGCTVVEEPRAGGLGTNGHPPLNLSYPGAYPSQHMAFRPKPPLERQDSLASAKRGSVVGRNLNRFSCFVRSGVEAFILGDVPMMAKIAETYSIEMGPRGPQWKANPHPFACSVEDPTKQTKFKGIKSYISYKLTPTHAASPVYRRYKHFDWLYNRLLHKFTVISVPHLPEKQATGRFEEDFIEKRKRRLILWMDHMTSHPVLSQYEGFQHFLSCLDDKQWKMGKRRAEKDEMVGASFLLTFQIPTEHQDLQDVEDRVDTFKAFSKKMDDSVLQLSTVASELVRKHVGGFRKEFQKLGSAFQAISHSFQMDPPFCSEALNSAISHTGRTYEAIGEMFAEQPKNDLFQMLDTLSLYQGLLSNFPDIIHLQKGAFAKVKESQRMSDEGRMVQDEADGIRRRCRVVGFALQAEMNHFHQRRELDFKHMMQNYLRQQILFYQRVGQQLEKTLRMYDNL
UniProt O60749: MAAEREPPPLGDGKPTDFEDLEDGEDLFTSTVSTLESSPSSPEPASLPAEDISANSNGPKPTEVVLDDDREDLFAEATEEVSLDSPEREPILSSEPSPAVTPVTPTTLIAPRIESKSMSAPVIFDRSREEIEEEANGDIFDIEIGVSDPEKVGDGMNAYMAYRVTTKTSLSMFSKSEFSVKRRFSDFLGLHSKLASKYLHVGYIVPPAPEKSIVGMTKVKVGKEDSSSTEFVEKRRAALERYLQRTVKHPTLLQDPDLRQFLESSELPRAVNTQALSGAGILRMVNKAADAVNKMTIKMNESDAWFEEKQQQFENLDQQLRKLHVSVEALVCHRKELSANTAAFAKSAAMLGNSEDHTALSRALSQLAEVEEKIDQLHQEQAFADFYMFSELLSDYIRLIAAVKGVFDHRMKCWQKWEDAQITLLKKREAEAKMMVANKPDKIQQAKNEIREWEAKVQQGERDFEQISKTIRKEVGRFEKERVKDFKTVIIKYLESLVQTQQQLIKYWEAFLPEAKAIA
UniProt P18583: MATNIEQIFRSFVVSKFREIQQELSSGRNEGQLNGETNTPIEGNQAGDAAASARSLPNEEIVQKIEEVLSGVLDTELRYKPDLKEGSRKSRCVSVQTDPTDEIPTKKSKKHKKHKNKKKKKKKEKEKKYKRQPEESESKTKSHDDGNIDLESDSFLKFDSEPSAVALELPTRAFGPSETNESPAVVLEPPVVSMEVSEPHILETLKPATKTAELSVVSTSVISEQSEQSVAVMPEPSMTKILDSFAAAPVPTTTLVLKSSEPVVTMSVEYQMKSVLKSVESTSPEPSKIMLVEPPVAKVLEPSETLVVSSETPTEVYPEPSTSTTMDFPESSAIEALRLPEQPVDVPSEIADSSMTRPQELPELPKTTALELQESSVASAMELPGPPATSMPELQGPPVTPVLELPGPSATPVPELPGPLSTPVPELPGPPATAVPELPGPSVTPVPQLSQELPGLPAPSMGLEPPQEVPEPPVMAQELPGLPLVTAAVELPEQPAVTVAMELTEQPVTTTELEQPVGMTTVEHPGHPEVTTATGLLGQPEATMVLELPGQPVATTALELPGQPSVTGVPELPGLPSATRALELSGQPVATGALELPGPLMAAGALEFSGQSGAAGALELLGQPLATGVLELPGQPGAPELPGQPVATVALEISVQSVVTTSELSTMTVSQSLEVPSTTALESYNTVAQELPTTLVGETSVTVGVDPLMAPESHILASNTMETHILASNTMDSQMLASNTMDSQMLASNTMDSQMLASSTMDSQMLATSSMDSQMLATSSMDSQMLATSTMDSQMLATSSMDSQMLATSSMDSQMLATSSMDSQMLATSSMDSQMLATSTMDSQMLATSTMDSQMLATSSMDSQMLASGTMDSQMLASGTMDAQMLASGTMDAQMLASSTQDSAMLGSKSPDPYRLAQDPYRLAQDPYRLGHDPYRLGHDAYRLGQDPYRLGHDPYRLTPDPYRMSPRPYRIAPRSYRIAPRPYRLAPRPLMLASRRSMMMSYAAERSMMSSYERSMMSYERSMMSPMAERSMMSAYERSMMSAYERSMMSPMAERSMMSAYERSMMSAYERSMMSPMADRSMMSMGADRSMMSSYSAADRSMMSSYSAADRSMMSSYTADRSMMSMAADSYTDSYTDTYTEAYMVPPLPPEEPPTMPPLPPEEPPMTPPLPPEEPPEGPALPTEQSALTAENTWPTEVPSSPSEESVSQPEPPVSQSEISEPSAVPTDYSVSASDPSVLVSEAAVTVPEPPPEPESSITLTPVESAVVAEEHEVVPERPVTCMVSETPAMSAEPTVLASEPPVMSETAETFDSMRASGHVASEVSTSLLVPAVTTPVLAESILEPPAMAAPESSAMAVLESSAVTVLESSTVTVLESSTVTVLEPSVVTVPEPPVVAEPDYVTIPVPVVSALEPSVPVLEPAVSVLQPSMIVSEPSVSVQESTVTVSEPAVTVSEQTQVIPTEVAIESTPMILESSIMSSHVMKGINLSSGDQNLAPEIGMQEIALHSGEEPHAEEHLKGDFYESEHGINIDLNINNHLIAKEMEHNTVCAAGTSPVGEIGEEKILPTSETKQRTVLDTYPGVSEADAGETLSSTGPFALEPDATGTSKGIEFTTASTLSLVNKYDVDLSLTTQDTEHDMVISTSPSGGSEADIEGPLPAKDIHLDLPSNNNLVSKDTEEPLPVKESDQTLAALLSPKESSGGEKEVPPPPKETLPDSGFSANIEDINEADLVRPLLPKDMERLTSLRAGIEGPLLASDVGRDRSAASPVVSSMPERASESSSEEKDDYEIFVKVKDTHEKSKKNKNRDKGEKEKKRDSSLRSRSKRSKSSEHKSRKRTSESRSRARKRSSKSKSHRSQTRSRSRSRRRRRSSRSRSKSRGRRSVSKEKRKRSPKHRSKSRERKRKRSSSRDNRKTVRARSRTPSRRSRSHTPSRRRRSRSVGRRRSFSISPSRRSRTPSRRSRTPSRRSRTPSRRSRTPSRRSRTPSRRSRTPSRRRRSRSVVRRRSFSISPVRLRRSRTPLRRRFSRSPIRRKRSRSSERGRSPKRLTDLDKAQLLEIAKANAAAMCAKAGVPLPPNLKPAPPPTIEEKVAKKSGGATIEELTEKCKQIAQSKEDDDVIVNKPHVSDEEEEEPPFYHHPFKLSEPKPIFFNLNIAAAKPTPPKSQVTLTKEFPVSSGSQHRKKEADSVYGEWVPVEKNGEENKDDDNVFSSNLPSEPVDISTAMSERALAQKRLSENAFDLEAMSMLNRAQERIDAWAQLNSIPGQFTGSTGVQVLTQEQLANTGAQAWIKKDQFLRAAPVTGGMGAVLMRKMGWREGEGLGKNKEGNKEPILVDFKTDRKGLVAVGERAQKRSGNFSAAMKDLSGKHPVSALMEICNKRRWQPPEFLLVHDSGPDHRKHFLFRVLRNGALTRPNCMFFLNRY
UniProt Q9Y5X0: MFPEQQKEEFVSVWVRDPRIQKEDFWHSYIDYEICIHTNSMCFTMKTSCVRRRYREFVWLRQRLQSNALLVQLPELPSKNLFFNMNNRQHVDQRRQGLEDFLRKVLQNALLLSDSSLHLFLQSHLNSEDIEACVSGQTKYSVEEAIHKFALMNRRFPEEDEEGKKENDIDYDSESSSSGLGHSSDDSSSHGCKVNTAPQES
UniProt Q6STE5, whole entry, looked up: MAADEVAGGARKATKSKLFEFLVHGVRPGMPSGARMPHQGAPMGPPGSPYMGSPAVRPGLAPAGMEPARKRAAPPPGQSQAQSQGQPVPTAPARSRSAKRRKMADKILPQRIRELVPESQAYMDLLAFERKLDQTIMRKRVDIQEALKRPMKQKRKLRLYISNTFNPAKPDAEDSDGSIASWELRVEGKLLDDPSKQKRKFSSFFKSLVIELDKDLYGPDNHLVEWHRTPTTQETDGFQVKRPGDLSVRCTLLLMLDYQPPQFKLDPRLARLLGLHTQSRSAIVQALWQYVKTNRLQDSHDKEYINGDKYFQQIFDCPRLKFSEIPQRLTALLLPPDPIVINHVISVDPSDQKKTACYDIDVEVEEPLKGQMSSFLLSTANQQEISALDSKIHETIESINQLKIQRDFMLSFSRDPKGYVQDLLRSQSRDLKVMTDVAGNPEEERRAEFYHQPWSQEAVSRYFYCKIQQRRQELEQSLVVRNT
UniProt P0DJ93: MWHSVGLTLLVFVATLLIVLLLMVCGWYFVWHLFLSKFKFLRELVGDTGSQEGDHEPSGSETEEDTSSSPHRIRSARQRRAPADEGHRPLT

Compound in one experiment: CN1CC[C@H](c2c(O)cc(O)c3c(=O)cc(-c4ccccc4Cl)oc23)[C@H](O)C1 [alvocidib]
As to the kind of experiment: log2 fold change, soluble protein after heating vs DMSO (PISA); higher = thermal stabilisation; K562 lysate, 10 uM; active = over 0.2 and 3.5 SD of the protein, either way, in both replicates (recomputed). The gist of the method: (§1)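 Pellets of K562 cells were dounce-homogenised in PBS pH 7.4 with 1 mM MgCl2, and the crude extract was held at 1 mg/mL protein for a 30 min treatment with 10 μM compound. Aliquots were heated for 3 min over 48°C-58°C and pooled before NP-40 was added to 0.5% at 4°C. The supernatant from 21,000xg for 90 min was quantified by TMTpro 16plex LC-MS/MS with channel sums equalised. Values are reported from duplicates as log-two fold change in thermal stability relative to solvent controls.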
Turning to SNAPC3 (UniProt Q92966), the log2 fold change is inactive: 0. SNAPC5 (UniProt O75971): the log2 fold change is inactive: 0.089. As for SOX12 (UniProt O15370), the log2 fold change was inactive: -0.207.

Regarding SOD3 (UniProt P08294), the log2 fold change is inactive: -0.058.

Consider SNAPC4 (UniProt Q5SXM2), for which the log2 fold change was inactive: 0.014. On the same count and under the same terms, the result for SNRNP35 isoform 2 (UniProt Q16560) reads inactive: -0.003.

Compound in the next experiment: CN1CCc2c(c3ccccc3n2Cc2ccc(C(=O)NO)cc2)C1 [Tubastatin A]
Described as above. The gist of the method: as §1
Regarding SNX13 (UniProt Q9Y5W8), the log2 fold change is inactive: -0.004. Regarding SMC1B isoform 3 (UniProt Q8NDV3), the log2 fold change is inactive: 0.038. Regarding SNX14 (UniProt Q9Y5W7), the log2 fold change is inactive: 0.296.

Regarding SMYD3 (UniProt Q9H7B4), the log2 fold change was inactive: -0.122.

For the target SNRNP25 (UniProt Q9BV90), the log2 fold change is inactive: -0.026. In the case of SMIM19 (UniProt Q96E16), the log2 fold change is inactive: 0.229. As to SMARCC2 isoform 3 (UniProt Q8TAQ2), the log2 fold change is inactive: -0.024.

For the target SPAG1 (UniProt Q07617), the log2 fold change is inactive: 0.071. As for SNX33 (UniProt Q8WV41), the log2 fold change was inactive: -0.276.

As to SNX25 (UniProt Q9H3E2), the log2 fold change is inactive: 0.068. Consider SMPD1 (UniProt P17405), for which the log2 fold change is inactive: 0.001. With SNX2 isoform 2 (UniProt O60749), the log2 fold change was inactive: 0.081. As for SNRPD2 (UniProt K7EJB5), the log2 fold change was inactive: -0.001. Still for that read-out and setting: to SON isoform 6 (UniProt P18583) belongs inactive: 0.014. The same measure, in the same setting: the result for SNX10 (UniProt Q9Y5X0) reads inactive: -0.263.

Compound in a further experiment: CNC(=O)C1=CC=CC=C1NC2=NC(=NC=C2Cl)NC3=C(C=C(C=C3)N4CCOCC4)OC
The experiment is described as above. A digest of the protocol: as §1
As to SNX13 (UniProt Q9Y5W8), the log2 fold change is inactive: 0.049.

SMC1B isoform 3 (UniProt Q8NDV3): the log2 fold change is inactive: 0. As for SNX14 (UniProt Q9Y5W7), the log2 fold change was inactive: -0.08. Still for that read-out and setting: to SMOX isoform 6 (UniProt Q9NWM0) belongs inactive: 0.099.

For the target SMYD3 (UniProt Q9H7B4), the log2 fold change was inactive: -0.018.

For the target SNAPC3 (UniProt Q92966), the log2 fold change is inactive: 0.104. The same measure, in the same setting: to SMARCD3 (UniProt Q6STE5) belongs inactive: 0.16; to SMIM13 (UniProt P0DJ93), inactive: 0.057; to SNX25 (UniProt Q9H3E2), inactive: 0.01.

In the case of SMPD1 (UniProt P17405), the log2 fold change was inactive: 0.006. SNX2 isoform 2 (UniProt O60749): the log2 fold change was inactive: -0.035. Still for that read-out and setting: to SNRPD2 (UniProt K7EJB5) belongs inactive: -0.057; to SNX10 (UniProt Q9Y5X0), inactive: -0.039.

The record behind these values is the supplement of paper PMC10849652.
